In publication PMC10008584, “Cryo-EM structures of human Cx36/GJD2 neuronal gap junction channel” (Nature Communications, 2023):
Results are given in words; binding and its absence hold for the method and conditions named. Some entries that bind do so weakly or less than the wild type.

Amino acid sequences for entries named in this document (tags omitted). A change or cut given only in a name is not applied to a line headed by its entry.
UniProt Q9UKL4: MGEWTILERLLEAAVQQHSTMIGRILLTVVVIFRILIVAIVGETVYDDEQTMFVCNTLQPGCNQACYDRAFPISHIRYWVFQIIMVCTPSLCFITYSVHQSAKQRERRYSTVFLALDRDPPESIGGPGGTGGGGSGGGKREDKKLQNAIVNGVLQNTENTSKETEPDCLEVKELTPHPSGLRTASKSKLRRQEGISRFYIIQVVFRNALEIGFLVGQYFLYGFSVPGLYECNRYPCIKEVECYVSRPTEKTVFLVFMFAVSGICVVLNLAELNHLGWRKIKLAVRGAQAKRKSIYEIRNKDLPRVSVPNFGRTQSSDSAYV

Key:
[1] = target: C-terminally eYFP-tagged human Cx36-K238E (for FSEC) (human) (UniProt Q9UKL4); test: SEC; fluorescence-detection size-exclusion chromatography (FSEC) of eYFP-tagged Cx36 solubilised in 20 mM HEPES pH 7.5, 200 mM NaCl, 5 mM EDTA, 1% LMNG; soluble fraction on Superose 6 Increase 5/150 GL
[2] = target: C-terminally eYFP-tagged human Cx36-WT (for FSEC) (human) (UniProt Q9UKL4); test: as above

| Substance | binding [1] | binding [2] |
| --- | --- | --- |
| C-terminally eYFP-tagged human Cx36-K238E (for FSEC) (from UniProt Q9UKL4 1-321) | binds | – |
| C-terminally eYFP-tagged human Cx36-WT (for FSEC) (from UniProt Q9UKL4 1-321) | – | binds |
